These are yes or no findings as the source states them, for the method shown. Binding seen in cells or lysates may run through a third protein. A yes stands for co-enrichment or nearness to the bait. Other partners may have been found.
These binders were tested against FLAG-hnRNP UL1 (heterogeneous nuclear ribonucleoprotein U-like protein 1), transiently expressed (human) (UniProt Q9BUJ2) (assay: affinity purification with mass spectrometry; anti-FLAG immunoprecipitation from whole-cell protein extract of HEK293T cells 24 h after transfection with FLAG-hnRNP UL1; nontransfected cells as control; precipitated proteins identified by mass spectrometry).

Protein sequences, listed by entry. Tags and fused reporters are not part of them.
UniProt Q9BUJ2: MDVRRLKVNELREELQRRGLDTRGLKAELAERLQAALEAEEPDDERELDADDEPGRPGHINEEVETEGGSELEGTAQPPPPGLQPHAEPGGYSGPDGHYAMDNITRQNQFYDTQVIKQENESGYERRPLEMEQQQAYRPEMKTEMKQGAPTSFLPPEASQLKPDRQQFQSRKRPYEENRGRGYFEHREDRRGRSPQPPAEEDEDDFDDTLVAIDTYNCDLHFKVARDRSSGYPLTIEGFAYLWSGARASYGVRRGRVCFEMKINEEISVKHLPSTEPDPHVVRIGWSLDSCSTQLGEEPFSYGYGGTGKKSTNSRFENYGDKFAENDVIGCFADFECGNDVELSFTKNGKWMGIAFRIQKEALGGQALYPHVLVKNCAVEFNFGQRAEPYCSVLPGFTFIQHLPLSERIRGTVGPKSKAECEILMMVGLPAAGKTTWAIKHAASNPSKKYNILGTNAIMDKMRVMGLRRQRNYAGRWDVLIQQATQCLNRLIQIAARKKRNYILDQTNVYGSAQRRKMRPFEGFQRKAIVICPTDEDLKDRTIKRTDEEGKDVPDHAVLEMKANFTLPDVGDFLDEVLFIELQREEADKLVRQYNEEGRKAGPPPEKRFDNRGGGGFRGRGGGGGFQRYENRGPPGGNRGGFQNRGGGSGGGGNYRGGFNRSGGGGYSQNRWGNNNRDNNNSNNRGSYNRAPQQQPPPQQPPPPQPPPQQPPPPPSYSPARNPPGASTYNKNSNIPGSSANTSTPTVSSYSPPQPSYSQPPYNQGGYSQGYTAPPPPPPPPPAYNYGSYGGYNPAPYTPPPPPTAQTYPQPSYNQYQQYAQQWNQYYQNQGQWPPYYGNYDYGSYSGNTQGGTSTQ

Binder | binding
ribosome biogenesis protein BRX1 homolog (BXDC2/BRX1) (protein, UniProt Q8TDN6 1-353) MAATKRKRRGGFAVQAKKPKRNEIDAEPPAKRHATAEEVEEEERDRIPGPVCKGKWKNKERILIFSSRGINFRTRHLMQDLRMLMPHSKADTKMDRKDKLFVINEVCEMKNCNKCIYFEAKKKQDLYMWLSNSPHGPSAKFLVQNIHTLAELKMTGNCLKGSRPLLSFDPAFDELPHYALLKELLIQIFSTPRYHPKSQPFVDHVFTFTILDNRIWFRNFQIIEEDAALVEIGPRFVLNLIKIFQGSFGGPTLYENPHYQSPNMHRRVIRSITAAKYREKQQVKDVQKLRKKEPKTLLPHDPTADVFVTPAEEKPIEIQWVKPEPKVDLKARKKRIYKRQRKMKQRMDSGKTK | binds
rRNA processing protein 1 homolog B (RRP1B) (protein, UniProt Q14684 1-758) MAPAMQPAEIQFAQRLASSEKGIRDRAVKKLRQYISVKTQRETGGFSQEELLKIWKGLFYCMWVQDEPLLQEELANTIAQLVHAVNNSAAQHLFIQTFWQTMNREWKGIDRLRLDKYYMLIRLVLRQSFEVLKRNGWEESRIKVFLDVLMKEVLCPESQSPNGVRFHFIDIYLDELSKVGGKELLADQNLKFIDPFCKIAAKTKDHTLVQTIARGVFEAIVDQSPFVPEETMEEQKTKVGDGDLSAEEIPENEVSLRRAVSKKKTALGKNHSRKDGLSDERGRDDCGTFEDTGPLLQFDYKAVADRLLEMTSRKNTPHFNRKRLSKLIKKFQDLSEGSSISQLSFAEDISADEDDQILSQGKHKKKGNKLLEKTNLEKEKGSRVFCVEEEDSESSLQKRRRKKKKKHHLQPENPGPGGAAPSLEQNRGREPEASGLKALKARVAEPGAEATSSTGEESGSEHPPAVPMHNKRKRPRKKSPRAHREMLESAVLPPEDMSQSGPSGSHPQGPRGSPTGGAQLLKRKRKLGVVPVNGSGLSTPAWPPLQQEGPPTGPAEGANSHTTLPQRRRLQKKKAGPGSLELCGLPSQKTASLKKRKKMRVMSNLVEHNGVLESEAGQPQALGSSGTCSSLKKQKLRAESDFVKFDTPFLPKPLFFRRAKSSTATHPPGPAVQLNKTPSSSKKVTFGLNRNMTAEFKKTDKSILVSPTGPSRVAFDPEQKPLHGVLKTPTSSPASSPLVAKKPLTTTPRRRPRAMDFF | binds

Further lines, results first:

binding | Binder
binds | nuclear fragile X mental retardation-interacting protein 2 (NUFIP2) (protein, UniProt Q7Z417 1-695) MEEKPGQPQPQHHHSHHHPHHHPQQQQQQPHHHHHYYFYNHSHNHHHHHHHQQPHQYLQHGAEGSPKAQPKPLKHEQKHTLQQHQETPKKKTGYGELNGNAGEREISLKNLSSDEATNPISRVLNGNQQVVDTSLKQTVKANTFGKAGIKTKNFIQKNSMDKKNGKSYENKSGENQSVDKSDTIPIPNGVVTNNSGYITNGYMGKGADNDGSGSESGYTTPKKRKARRNSAKGCENLNIVQDKIMQQETSVPTLKQGLETFKPDYSEQKGNRVDGSKPIWKYETGPGGTSRGKPAVGDMLRKSSDSKPGVSSKKFDDRPKGKHASAVASKEDSWTLFKPPPVFPVDNSSAKIVPKISYASKVKENLNKTIQNSSVSPTSSSSSSSSTGETQTQSSSRLSQVPMSALKSVTSANFSNGPVLAGTDGNVYPPGGQPLLTTAANTLTPISSGTDSVLQDMSLTSAAVEQIKTSLFIYPSNMQTMLLSTAQVDLPSQTDQQNLGDIFQNQWGLSFINEPSAGPETVTGKSSEHKVMEVTFQGEYPATLVSQGAEIIPSGTEHPVFPKAYELEKRTSPQVLGSILKSGTTSESGALSLEPSHIGDLQKADTSSQGALVFLSKDYEIESQNPLASPTNTLLGSAKEQRYQRGLERNDSWGSFDLRAAIVYHTKEMESIWNLQKQDPKRIITYNEAMDSPDQ
binds | RNA-binding protein 28 (RBM28) (protein, UniProt Q9NW13 1-759) MAGLTLFVGRLPPSARSEQLEELFSQVGPVKQCFVVTEKGSKACRGFGYVTFSMLEDVQRALKEITTFEGCKINVTVAKKKLRNKTKEKGKNENSECPKKEPKAKKAKVADKKARLIIRNLSFKCSEDDLKTVFAQFGAVLEVNIPRKPDGKMRGFGFVQFKNLLEAGKALKGMNMKEIKGRTVAVDWAVAKDKYKDTQSVSAIGEEKSHESKHQESVKKKGREEEDMEEEENDDDDDDDDEEDGVFDDEDEEEENIESKVTKPVQIQKRAVKRPAPAKSSDHSEEDSDLEESDSIDDGEELAQSDTSTEEQEDKAVQVSNKKKRKLPSDVNEGKTVFIRNLSFDSEEEELGELLQQFGELKYVRIVLHPDTEHSKGCAFAQFMTQEAAQKCLLAASPENEAGGLKLDGRQLKVDLAVTRDEAAKLQTTKVKKPTGTRNLYLAREGLIRAGTKAAEGVSAADMAKRERFELLKHQKLKDQNIFVSRTRLCLHNLPKAVDDKQLRKLLLSATSGEKGVRIKECRVMRDLKGVHGNMKGQSLGYAFAEFQEHEHALKALRLINNNPEIFGPLKRPIVEFSLEDRRKLKMKELRIQRSLQKMRSKPATGEPQKGQPEPAKDQQQKAAQHHTEEQSKVPPEQKRKAGSTSWTGFQTKAEVEQVELPDGKKRRKVLALPSHRGPKIRLRDKGKVKPVHPKKPKPQINQWKQEKQQLSSEQVSRKKAKGNKTETRFNQLVEQYKQKLLGPSKGAPLAKRSKWFDS

From article PMC9379416
